US20110098218A1 (AGENCY FOR SCIENCE TECHNOLOGY AND RESEARCH, published 2011)
No constants are given. Whether binding was seen depends on the method and setting. Binding seen in cells or lysates may run through a third protein. Some results given as binding are weak or reduced against the parent protein; the word gives no strength.

By UniProt entry, the sequences of proteins in these tests, tags left out. Where a name states a change or a piece, a line headed by the entry shows the natural chain unless it says otherwise. Chains listed by the source or under a name are the forms on record and can include a tag or linker. Residues count along the entry.
UniProt P42227: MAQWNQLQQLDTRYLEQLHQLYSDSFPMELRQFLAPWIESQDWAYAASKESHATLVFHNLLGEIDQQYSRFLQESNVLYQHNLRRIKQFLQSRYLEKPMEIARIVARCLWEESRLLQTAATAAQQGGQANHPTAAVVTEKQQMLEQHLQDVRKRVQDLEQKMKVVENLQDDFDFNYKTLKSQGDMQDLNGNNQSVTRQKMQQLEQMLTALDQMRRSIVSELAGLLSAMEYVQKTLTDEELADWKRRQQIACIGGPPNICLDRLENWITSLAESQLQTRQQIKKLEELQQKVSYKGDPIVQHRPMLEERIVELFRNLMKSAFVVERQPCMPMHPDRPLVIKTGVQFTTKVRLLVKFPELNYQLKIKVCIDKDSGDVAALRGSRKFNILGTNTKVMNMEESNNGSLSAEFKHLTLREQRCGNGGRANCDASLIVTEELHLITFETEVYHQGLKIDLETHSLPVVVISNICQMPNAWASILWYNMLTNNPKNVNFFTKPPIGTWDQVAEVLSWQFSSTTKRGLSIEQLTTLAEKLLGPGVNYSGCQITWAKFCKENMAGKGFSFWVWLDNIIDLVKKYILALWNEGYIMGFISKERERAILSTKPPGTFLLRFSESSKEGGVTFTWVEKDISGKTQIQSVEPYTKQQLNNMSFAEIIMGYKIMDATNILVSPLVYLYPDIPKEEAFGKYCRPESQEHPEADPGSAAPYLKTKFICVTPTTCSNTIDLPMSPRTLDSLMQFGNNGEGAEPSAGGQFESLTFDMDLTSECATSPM
UniProt Q9R1E0: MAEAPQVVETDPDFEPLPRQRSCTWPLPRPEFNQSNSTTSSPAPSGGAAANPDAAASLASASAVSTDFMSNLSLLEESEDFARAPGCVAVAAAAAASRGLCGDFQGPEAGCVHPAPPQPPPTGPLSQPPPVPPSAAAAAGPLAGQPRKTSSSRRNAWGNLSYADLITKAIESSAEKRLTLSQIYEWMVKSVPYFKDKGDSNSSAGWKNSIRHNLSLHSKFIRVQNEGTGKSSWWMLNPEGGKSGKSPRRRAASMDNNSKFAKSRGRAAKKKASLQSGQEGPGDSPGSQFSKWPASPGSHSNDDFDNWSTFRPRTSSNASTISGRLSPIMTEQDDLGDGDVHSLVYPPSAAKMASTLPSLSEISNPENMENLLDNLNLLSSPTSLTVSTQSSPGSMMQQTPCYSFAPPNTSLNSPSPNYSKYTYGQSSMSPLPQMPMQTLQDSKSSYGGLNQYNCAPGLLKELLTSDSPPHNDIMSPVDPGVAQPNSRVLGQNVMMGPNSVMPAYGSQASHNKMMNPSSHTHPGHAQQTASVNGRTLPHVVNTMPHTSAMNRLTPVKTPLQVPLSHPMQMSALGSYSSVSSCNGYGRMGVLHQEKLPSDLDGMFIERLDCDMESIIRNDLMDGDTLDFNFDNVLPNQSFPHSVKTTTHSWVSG
FoxO1^(1-167)-(242-652) (Q9R1E0, form named): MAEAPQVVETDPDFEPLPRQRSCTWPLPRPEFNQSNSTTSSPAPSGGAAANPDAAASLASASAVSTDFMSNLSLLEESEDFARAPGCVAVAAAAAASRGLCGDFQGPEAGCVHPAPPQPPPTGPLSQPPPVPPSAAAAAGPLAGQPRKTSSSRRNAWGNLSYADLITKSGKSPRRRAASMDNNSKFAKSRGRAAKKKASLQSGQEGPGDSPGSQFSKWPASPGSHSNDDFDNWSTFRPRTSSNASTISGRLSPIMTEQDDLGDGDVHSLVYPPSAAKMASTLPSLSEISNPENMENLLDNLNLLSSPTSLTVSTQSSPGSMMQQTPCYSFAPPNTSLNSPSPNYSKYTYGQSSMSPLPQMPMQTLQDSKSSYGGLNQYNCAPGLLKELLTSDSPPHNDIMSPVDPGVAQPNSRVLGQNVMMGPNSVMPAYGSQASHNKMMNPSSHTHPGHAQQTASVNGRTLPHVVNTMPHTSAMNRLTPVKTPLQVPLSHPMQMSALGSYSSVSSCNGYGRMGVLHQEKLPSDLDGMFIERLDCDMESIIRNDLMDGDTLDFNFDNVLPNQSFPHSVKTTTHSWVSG
UniProt P08047, residues 2-785: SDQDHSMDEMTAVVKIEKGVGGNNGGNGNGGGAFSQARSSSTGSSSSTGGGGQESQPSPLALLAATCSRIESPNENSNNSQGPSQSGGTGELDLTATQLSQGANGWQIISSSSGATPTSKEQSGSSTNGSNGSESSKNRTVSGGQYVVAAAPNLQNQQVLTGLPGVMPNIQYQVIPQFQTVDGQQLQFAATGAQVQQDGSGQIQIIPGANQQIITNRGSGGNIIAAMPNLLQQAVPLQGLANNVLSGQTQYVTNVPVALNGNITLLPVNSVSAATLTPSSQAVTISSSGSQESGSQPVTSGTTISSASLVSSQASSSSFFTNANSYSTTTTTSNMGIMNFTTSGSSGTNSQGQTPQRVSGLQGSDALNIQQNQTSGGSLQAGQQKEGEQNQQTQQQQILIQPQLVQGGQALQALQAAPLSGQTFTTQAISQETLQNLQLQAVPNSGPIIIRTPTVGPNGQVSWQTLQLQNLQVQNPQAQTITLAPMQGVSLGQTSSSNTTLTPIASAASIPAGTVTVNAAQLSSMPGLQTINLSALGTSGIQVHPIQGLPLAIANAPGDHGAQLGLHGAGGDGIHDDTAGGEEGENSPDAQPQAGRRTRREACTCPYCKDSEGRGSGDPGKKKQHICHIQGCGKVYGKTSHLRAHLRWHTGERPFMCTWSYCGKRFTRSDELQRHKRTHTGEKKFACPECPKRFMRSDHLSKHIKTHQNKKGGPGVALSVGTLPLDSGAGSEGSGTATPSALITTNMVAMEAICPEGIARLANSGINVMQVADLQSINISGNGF

How the values were obtained:
[1] = target: Flag-tagged mouse STAT3 (pXJ40-Flag-mSTAT3) (mouse) (UniProt P42227); test: coimmunoprecipitation
[2] = target: Flag-tagged mouse STAT3 (pXJ40-Flag-mSTAT3) (mouse) (UniProt P42227); test: co-IP with Flag antibody from nuclear extracts, increasing amount of FoxO1
[3] = target: Flag-tagged mouse STAT3 (pXJ40-Flag-mSTAT3) (mouse) (UniProt P42227); test: two-way co-IP (anti-Flag and anti-Myc) from leptin-treated 293-OBRb cells
[4] = target: Flag-tagged mouse STAT3 (pXJ40-Flag-mSTAT3) (mouse) (UniProt P42227); test: co-IP with SP1 antibody from leptin-treated 293-OBRb cells, immunoblot with phospho-STAT3 antibody

FoxO1^(1-167)-(242-652) (from UniProt Q9R1E0 1-167; Q9R1E0 242-652)
binding [1]: binds

Myc-tagged mouse FoxO1 (pcDNA3-Myc-mFoxO1) (from UniProt Q9R1E0 1-652)
binding [2]: binds
binding [3]: binds

SP1 (from UniProt P08047 2-785)
binding [4]: binds
